The source of these data is the supplement of paper PMC9925115.

Molecules are shown by their SMILES. The list shows a part of the results, in another mix than the full data.

For the assay, the system named is FLX1 + dox-induced PRKAR1A G325D. In words: difference in log2 fold change of viability vs plate median (dox-induced PRKAR1A G325D minus uninduced); higher = compound less effective when PKA is inhibited. The conditions noted are these: concentration: not stated (2 or 5 uM); 5 days. As to the method: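 For each plate a log2 fold change vs the plate median was derived, and the values without dox were subtracted from those with dox, averaged over three biological replicates.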
As to `Cc1ccccc1-n1c(Cn2nc(-c3cccc(O)c3)c3c(N)ncnc32)nc2cccc(C)c2c1=O`, the “difference in log2 fold change of viability” value is 0.223.
Consider `Cc1nc2c(-c3cnc(N)nc3)nc(N3CCOCC3)nc2n1C(C)C`, for which the “difference in log2 fold change of viability” value is 0.679.
